Experimental data reported in PMC5953937.
Results are given in words; binding and its absence hold for the method and conditions named. Binding seen in cells or lysates may run through a third protein. Some entries that bind do so weakly or less than the wild type. For part of these data: Tags and fused reporters may be left off the sequences shown.

Protein sequences, listed by entry. Tags and fused reporters are not part of them.
UniProt Q92993: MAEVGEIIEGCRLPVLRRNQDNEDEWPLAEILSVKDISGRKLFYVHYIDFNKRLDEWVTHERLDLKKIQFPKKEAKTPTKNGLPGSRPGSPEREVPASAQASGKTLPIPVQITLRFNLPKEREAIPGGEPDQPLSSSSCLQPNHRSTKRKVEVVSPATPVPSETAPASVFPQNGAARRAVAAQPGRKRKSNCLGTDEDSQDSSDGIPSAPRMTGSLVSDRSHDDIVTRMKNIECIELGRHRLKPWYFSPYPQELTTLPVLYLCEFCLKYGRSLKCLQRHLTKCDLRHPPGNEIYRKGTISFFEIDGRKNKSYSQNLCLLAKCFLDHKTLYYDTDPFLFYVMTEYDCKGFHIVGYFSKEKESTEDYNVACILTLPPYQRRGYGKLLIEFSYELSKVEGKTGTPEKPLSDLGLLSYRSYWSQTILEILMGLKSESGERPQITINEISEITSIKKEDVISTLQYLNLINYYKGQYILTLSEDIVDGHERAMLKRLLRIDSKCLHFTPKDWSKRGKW
UniProt Q8CHK4: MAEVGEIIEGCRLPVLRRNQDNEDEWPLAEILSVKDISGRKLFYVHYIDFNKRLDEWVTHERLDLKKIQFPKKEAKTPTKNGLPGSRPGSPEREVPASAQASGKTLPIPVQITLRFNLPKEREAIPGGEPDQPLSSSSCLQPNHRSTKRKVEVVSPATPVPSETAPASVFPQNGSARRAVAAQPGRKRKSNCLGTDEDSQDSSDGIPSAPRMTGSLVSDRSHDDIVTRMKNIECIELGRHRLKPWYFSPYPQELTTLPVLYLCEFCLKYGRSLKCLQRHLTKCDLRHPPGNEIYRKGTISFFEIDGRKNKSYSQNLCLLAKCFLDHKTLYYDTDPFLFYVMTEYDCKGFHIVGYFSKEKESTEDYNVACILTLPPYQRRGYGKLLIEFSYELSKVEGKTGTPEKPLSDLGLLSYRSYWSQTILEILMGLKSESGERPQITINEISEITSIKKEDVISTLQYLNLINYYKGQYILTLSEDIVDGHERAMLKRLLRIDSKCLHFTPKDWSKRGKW

How the values were obtained:
[1] = target: T1, Flag-tagged lipin 1 (human) (UniProt Q14693); assay: co-IP; competition: HEK293T cells transfected with Flag-lipin 1, HA-Tip60 and varied amounts of Myc-Sirt1; immunoprecipitated with antibody to Flag, immunoblotted
T1 sequence: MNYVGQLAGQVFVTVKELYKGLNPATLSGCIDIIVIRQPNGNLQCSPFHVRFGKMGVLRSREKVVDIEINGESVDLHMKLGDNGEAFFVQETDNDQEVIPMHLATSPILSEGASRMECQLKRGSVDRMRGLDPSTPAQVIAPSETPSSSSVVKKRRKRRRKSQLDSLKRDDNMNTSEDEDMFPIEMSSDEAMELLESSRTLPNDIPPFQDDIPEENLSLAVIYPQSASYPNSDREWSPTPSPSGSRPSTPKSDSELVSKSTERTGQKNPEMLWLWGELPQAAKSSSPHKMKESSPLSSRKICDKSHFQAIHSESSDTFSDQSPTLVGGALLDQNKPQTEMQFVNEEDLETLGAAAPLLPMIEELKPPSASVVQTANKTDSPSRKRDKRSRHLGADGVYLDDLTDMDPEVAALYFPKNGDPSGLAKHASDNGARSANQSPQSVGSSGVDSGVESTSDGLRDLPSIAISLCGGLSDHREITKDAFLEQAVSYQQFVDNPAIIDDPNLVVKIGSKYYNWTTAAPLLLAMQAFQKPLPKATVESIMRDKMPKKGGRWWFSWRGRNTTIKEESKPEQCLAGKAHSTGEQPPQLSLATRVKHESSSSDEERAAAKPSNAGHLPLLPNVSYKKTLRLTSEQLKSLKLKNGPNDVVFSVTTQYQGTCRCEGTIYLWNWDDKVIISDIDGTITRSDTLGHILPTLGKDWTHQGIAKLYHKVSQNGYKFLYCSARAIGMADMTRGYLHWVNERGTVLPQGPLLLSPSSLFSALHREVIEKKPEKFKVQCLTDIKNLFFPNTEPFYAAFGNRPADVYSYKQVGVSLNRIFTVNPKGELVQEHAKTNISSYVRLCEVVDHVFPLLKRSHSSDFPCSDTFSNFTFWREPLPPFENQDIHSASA

[2] = target: T1, Flag-tagged lipin 1 (human); assay: co-IP; HEK293T cells co-transfected; protein extracts immunoprecipitated with antibody to Flag and immunoblotted; lysis buffer 20 mM Tris-HCl pH 7.4, 150 mM NaCl, 1% Triton
[3] = target: T2, endogenous lipin 1 (3T3-L1 adipocytes) (mouse (endogenous in 3T3-L1)) (UniProt Q91ZP3); assay: co-IP; endogenous proteins; lysates of 3T3-L1 adipocytes treated with or without OA for 3 h, immunoprecipitated by antibody to lipin 1 or Tip60, immunoblotting
T2 sequence: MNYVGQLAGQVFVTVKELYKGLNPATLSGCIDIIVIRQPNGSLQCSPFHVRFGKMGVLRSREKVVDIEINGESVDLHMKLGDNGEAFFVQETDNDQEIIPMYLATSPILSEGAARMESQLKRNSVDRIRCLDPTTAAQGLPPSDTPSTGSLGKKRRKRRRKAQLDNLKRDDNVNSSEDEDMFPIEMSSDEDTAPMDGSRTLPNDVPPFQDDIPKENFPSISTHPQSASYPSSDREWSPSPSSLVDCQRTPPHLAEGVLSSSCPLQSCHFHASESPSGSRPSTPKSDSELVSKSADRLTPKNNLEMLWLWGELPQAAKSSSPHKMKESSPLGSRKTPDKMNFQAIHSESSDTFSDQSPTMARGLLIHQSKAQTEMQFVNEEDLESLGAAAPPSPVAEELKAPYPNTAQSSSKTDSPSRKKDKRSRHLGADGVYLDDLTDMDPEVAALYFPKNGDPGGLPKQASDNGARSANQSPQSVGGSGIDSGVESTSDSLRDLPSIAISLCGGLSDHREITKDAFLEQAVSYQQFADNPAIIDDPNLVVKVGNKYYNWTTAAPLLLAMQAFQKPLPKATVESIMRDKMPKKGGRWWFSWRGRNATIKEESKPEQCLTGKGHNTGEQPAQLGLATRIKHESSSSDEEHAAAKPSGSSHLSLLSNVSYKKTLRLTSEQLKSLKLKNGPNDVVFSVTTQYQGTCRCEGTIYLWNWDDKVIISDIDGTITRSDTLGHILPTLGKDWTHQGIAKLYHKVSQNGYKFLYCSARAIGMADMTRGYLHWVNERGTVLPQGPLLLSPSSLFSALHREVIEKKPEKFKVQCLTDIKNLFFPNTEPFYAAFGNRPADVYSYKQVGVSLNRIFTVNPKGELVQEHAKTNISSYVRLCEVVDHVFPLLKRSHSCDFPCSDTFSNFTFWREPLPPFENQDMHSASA

Substance: HA-Tip60 (from UniProt Q92993 1-513)
- binding [1]: binds

Substance: Myc-tagged Tip60 (from UniProt Q92993 1-513)
- binding [2]: binds

Substance: endogenous Tip60 (3T3-L1 adipocytes) (from UniProt Q8CHK4 1-513)
- binding [3]: binds
